Measurements published in publication PMC7819943, “Rice protein-binding microarrays: a tool to detect cis-acting elements near promoter regions in rice”.
Some of the results follow.

target: T1, OsSMF1 (Oryza sativa, UniProt Q6ZLB0 1-436); test: protein-binding microarray (RPBM); PBS, 2% BSA, 51.3 ng/ul salmon testes DNA, 50 uM zinc acetate, 200 nM TF, 25 C, 1 h; high values mean tight binding; conditions: protein: recombinant; tags: N-terminal polyhistidine and DsRed monomer fusion (pET32a); chain copies: 2; label: CyDye5-dUTP incorporated in the synthesized complementary strand; 3' TTTTT single-stranded linker to array surface; dsDNA, one strand shown
T1 sequence: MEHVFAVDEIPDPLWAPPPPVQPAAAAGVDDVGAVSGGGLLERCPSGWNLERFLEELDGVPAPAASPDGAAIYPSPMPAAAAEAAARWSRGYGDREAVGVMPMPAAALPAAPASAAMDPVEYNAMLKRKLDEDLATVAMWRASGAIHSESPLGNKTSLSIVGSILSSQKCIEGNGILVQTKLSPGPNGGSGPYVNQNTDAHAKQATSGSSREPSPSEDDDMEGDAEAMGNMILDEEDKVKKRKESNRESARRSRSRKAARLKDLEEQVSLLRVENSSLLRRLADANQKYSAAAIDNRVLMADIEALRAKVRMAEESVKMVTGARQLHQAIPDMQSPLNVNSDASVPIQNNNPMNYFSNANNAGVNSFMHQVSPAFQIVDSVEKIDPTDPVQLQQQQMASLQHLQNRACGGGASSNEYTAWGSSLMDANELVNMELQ
In short: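 An Axon 4000B scanner gave the binding signal as per-feature fluorescence intensity in arbitrary units. This followed washing of a custom Agilent array that had been incubated for 1 h at 25 °C with 200 nM protein in PBS, 2% BSA, salmon testes DNA and 50 µM zinc acetate. The proteins were transcription factors fused at the N-terminus to polyhistidine and DsRed, expressed in E. coli BL21-CodonPlus and purified on Ni–NTA.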

In order of falling binding signal:
1. CGTTCTGACGACGAACACACGGAGATAGAGAAAGAGAGAGCGGAGTCACCTAGTGCAG  33200 fluorescence intensity (a.u.)
2. GCGCGGCGGCACGAGGACGACGCTGCGGTGGAGAGGAAAACGGAGTCACCTAGTGCAG  31600 fluorescence intensity (a.u.)
3. ATATATGCTACTAGTTATTCCTCGTAAACAAACGATTCATCGGAGTCACCTAGTGCAG  25600 fluorescence intensity (a.u.)
4. TCCGGTTTCTAGCTTCTAGTTTGTTTTATAGATTCTTTAGCGGAGTCACCTAGTGCAG  25200 fluorescence intensity (a.u.)
5. CTCTGCCATGGCGGCGCCGGCAGCCGTTCTTGCCGTGCTCCGGAGTCACCTAGTGCAG  24200 fluorescence intensity (a.u.)
6. CCGCAATCAAAATTTAAATTTTAAAACTTAACTTTATAGTCGGAGTCACCTAGTGCAG  18700 fluorescence intensity (a.u.)
7. AGAGGGGCAGGCCCACTGACACGTGGGGTCCACCCGCCGTCGGAGTCACCTAGTGCAG  16400 fluorescence intensity (a.u.)
8. CTCCCACGAACCGCACCTCACCTTCTTTCTCTTTCATTCTCGGAGTCACCTAGTGCAG  13600 fluorescence intensity (a.u.)
9. ATATAATGAAATTTCAGAGAGGGTGGACTGGGCTTTATAGCGGAGTCACCTAGTGCAG  13400 fluorescence intensity (a.u.)
10. GCTAGTAACTTTTGACGCGTCACTGCATCTGCCGATTCTGCGGAGTCACCTAGTGCAG  13100 fluorescence intensity (a.u.)
11. AACGGCAGGAAGCACATCCACGTGGAAGATCACTGCAATACGGAGTCACCTAGTGCAG  9720 fluorescence intensity (a.u.)
12. TGAGATTAACGACAAATGGTTCCGCGTCACCGGGTCAGAGCGGAGTCACCTAGTGCAG  9000 fluorescence intensity (a.u.)
13. TAGTTTTATCAACCCTCTCTCCACGTGCCATCCCTGCTTTCGGAGTCACCTAGTGCAG  8400 fluorescence intensity (a.u.)
14. TAGATCGTGTAACTGAGGCGAGCTGACCTGGCTTGTTTTCCGGAGTCACCTAGTGCAG  7730 fluorescence intensity (a.u.)
15. TCGGTCTCTCCACCGATCGCGCCCGCGACACGTACGACGGCGGAGTCACCTAGTGCAG  7410 fluorescence intensity (a.u.)
16. TCCAGCCACGCCTCGTCACTCGCCACCCACACTGCGCAAGCGGAGTCACCTAGTGCAG  7390 fluorescence intensity (a.u.)
17. ACCACACACACACTGACACTGTGACACAACACAACACGGCCGGAGTCACCTAGTGCAG  6920 fluorescence intensity (a.u.)
18. TGGCCCGTAGTCAACATGCCACGTGGATGCCACATATGACCGGAGTCACCTAGTGCAG  6700 fluorescence intensity (a.u.)
19. CGGGGCGGCTGGCTTGACGCGTCATCTTCCCCGCGAAAATCGGAGTCACCTAGTGCAG  6570 fluorescence intensity (a.u.)
20. TCACCCTGTCCTCGTCACGTCCCATTTTACATCCACCACCCGGAGTCACCTAGTGCAG  6570 fluorescence intensity (a.u.)
21. TATGCAATCGAACTGTGTCACGTGGAAACTGACGTGAAGTCGGAGTCACCTAGTGCAG  5140 fluorescence intensity (a.u.)
22. TGCACACACTCACTCCTATAAACATATACACGTACACTCTCGGAGTCACCTAGTGCAG  4850 fluorescence intensity (a.u.)
23. GGTCGAGCATCCCGTCACCTTCCCACTCCTCATTTGCTCGCGGAGTCACCTAGTGCAG  4790 fluorescence intensity (a.u.)
24. GATTCATTCGGGCTGGCTACGATCCTGGATGCATCAGTCACGGAGTCACCTAGTGCAG  4700 fluorescence intensity (a.u.)
25. ACATCAACTATCACAAATGCTATGACTAATGCTTGATTCGCGGAGTCACCTAGTGCAG  4500 fluorescence intensity (a.u.)
26. CAACGTTCCAACAAAATCAAGCGTCACCTCCTCGGAAACACGGAGTCACCTAGTGCAG  4370 fluorescence intensity (a.u.)
27. CACCAAGGTACTCTTGTGACGCACGCACTCATCGCCATCGCGGAGTCACCTAGTGCAG  4340 fluorescence intensity (a.u.)
28. ATTGTTCGATTCGACACGACGACACTATCCCCTCCCACTTCGGAGTCACCTAGTGCAG  4190 fluorescence intensity (a.u.)
29. TTTGCATGCTTCATTACCACCTTCATCCACGTTGAAAGTACGGAGTCACCTAGTGCAG  4160 fluorescence intensity (a.u.)
30. GGTGGTTAGGCTACTTGTAATGGTACACATTGCTATCAAACGGAGTCACCTAGTGCAG  4080 fluorescence intensity (a.u.)
31. TTCAATTCTGCCATTTGTTTCTGACTTGGATACCCTTGCCCGGAGTCACCTAGTGCAG  4040 fluorescence intensity (a.u.)
32. TTACATTGCTGACATATGTGTTGTTCAAACTTGAAATTTGCGGAGTCACCTAGTGCAG  4000 fluorescence intensity (a.u.)
33. TCTCCTGGTTTTGTGTGTTAGCGCTGTCAGTGTGTGGGTGCGGAGTCACCTAGTGCAG  3780 fluorescence intensity (a.u.)
34. GGAGAGGAAGGGGATGAGGTGGATTTTCTTGGAAGGACACCGGAGTCACCTAGTGCAG  3670 fluorescence intensity (a.u.)
35. GTCATCACCACCACGCGAGCTCGCTCAGCAACACGACACGCGGAGTCACCTAGTGCAG  3590 fluorescence intensity (a.u.)
36. TGGCATGTAAGATGTCACGCGTGAGCCTACCTGGTTGCGACGGAGTCACCTAGTGCAG  3570 fluorescence intensity (a.u.)
37. TAAGGTTTGTAAGTAACTTAAGGCATGTCGTCATTGCCATCGGAGTCACCTAGTGCAG  3400 fluorescence intensity (a.u.)
38. GTGGTACACGCATGCTGACTAATTAAGACCGACAGAATCCCGGAGTCACCTAGTGCAG  3390 fluorescence intensity (a.u.)
39. TTGTGTTATTCATGTCATAATGTATTCATGCTCTTGGATTCGGAGTCACCTAGTGCAG  3340 fluorescence intensity (a.u.)
40. TGATCAAACTGGGATGGAGGGAGTAGTAGTACCAATCATTCGGAGTCACCTAGTGCAG  3330 fluorescence intensity (a.u.)
41. ATGGTAGAGTGCTGGATGCTGCTGATCAAGCTTCGTCTTCCGGAGTCACCTAGTGCAG  3210 fluorescence intensity (a.u.)
42. CCGCCATCTCTGCCCCTCCACCGTCGTCGACGAACCGCCGCGGAGTCACCTAGTGCAG  3200 fluorescence intensity (a.u.)
